From PMC13582825
Results are given in words; binding and its absence hold for the method and conditions named. In cells and extracts the contact can be indirect. Some binding calls cover weakened binding; strength is not graded here. Sequences can lack the tags named with a protein. One block for each molecule: values may come before it.

Protein sequences, listed by entry. Tags and fused reporters are not part of them.
UniProt P67775: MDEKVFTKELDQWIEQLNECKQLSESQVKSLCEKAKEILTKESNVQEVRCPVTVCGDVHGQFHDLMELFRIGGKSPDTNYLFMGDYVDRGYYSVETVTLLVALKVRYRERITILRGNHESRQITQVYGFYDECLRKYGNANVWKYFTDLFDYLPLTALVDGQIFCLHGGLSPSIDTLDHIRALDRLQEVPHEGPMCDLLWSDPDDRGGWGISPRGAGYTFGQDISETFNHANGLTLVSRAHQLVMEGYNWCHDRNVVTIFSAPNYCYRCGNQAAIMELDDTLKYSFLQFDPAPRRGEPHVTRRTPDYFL
UniProt A7MCY6: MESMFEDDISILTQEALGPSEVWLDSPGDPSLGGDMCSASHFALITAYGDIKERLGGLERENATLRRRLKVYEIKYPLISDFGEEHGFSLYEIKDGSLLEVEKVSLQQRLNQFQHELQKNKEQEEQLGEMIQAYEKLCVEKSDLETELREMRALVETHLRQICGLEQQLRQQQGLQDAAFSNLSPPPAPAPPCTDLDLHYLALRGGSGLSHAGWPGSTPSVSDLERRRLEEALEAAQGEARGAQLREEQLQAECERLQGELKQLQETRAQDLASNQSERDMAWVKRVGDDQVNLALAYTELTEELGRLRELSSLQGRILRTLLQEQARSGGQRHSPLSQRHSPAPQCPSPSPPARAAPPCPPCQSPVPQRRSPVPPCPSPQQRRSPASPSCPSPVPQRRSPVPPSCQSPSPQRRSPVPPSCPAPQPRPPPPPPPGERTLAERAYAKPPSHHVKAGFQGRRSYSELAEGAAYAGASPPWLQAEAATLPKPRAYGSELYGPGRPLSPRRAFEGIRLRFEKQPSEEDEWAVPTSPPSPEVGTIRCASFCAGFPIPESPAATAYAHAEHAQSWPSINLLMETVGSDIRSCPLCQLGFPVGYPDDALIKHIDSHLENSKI

Assays:
HA-TANK (human) = molecular target: T1, HA-TANK (human) (UniProt Q92844); assay: co-IP; HEK293T co-transfected 24 h with FLAG-SINTBAD and HA-TANK; TANK immunoprecipitated with anti-HA, protein G magnetic beads, washes in RIPA buffer; WB anti-TANK and anti-SINTBAD
T1 sequence: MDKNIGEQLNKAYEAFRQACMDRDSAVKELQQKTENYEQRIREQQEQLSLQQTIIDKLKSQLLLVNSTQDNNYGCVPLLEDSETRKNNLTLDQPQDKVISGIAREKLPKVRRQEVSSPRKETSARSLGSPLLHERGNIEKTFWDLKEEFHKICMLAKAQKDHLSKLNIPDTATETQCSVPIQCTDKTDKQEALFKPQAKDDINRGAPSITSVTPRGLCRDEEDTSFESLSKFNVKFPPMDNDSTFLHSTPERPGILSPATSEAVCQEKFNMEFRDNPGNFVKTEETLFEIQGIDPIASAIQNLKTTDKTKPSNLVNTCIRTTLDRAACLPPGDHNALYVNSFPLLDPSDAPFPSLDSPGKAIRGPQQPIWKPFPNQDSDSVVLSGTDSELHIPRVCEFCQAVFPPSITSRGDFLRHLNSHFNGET

GFP-PP2A-Cα (human) = GFP-PP2A-Cα (human) (UniProt P67775); assay: co-IP; GFP-PP2A-Cα immunoprecipitated; NAP1 and TBK1 looked for (Supplementary Fig. 8G)
GFP-TBK1 (human) = molecular target: T2, GFP-TBK1 (human) (UniProt Q9UHD2); assay: co-IP; TBK1 with HD or TBD-CTD truncations of the adaptor proteins (Supplementary Fig. 5D); HEK293T, lysis and washes in RIPA buffer, protein G magnetic beads
T2 sequence: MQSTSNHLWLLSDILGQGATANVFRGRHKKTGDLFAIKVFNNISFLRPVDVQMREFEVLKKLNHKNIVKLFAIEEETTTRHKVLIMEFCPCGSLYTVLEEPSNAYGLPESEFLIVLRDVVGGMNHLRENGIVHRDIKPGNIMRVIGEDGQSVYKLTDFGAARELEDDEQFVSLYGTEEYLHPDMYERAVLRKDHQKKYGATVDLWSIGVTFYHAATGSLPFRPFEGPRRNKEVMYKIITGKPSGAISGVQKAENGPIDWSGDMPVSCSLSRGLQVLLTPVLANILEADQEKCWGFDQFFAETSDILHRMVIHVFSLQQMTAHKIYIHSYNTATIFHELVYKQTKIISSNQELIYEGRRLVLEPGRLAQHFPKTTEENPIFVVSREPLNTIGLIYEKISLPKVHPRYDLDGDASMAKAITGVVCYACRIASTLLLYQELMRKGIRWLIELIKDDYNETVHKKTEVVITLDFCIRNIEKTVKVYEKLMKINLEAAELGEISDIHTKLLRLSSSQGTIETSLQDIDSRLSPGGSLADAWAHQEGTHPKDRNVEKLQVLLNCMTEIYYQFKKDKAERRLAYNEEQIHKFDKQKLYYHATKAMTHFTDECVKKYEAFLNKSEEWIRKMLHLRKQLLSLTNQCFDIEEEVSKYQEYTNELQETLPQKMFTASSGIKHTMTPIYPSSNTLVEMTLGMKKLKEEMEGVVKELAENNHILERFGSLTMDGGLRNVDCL

GFP-TBK1 1-668 (human) = molecular target: T3, GFP-TBK1 1-668 (human) (UniProt Q9UHD2); assay: co-IP; HEK293T; GFP-TBK1 1-668 with the adaptor proteins (Supplementary Fig. 5B); lysis and washes in RIPA buffer, protein G magnetic beads
T3 sequence: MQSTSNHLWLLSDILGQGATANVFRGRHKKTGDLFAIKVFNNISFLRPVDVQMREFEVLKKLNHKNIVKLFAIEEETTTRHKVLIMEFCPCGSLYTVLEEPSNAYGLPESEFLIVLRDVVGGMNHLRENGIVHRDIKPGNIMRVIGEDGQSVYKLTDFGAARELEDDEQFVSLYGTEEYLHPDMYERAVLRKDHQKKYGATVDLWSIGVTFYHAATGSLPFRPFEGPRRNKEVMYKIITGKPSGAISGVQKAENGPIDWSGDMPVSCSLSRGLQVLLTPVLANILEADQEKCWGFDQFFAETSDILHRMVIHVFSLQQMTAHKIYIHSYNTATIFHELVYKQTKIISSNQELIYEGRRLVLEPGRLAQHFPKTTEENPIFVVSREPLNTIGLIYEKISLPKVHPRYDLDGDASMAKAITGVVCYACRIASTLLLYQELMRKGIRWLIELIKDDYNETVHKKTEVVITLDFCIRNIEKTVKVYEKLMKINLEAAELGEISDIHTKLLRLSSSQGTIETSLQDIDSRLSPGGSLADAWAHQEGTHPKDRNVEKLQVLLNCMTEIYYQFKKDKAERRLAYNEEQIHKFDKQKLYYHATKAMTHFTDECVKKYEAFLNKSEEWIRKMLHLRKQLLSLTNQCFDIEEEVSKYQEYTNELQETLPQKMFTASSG

B1: TBK1 (as tested with immunoprecipitated GFP-PP2A-Cα) (enzyme, UniProt Q9UHD2 1-729)
chain: MQSTSNHLWLLSDILGQGATANVFRGRHKKTGDLFAIKVFNNISFLRPVDVQMREFEVLKKLNHKNIVKLFAIEEETTTRHKVLIMEFCPCGSLYTVLEEPSNAYGLPESEFLIVLRDVVGGMNHLRENGIVHRDIKPGNIMRVIGEDGQSVYKLTDFGAARELEDDEQFVSLYGTEEYLHPDMYERAVLRKDHQKKYGATVDLWSIGVTFYHAATGSLPFRPFEGPRRNKEVMYKIITGKPSGAISGVQKAENGPIDWSGDMPVSCSLSRGLQVLLTPVLANILEADQEKCWGFDQFFAETSDILHRMVIHVFSLQQMTAHKIYIHSYNTATIFHELVYKQTKIISSNQELIYEGRRLVLEPGRLAQHFPKTTEENPIFVVSREPLNTIGLIYEKISLPKVHPRYDLDGDASMAKAITGVVCYACRIASTLLLYQELMRKGIRWLIELIKDDYNETVHKKTEVVITLDFCIRNIEKTVKVYEKLMKINLEAAELGEISDIHTKLLRLSSSQGTIETSLQDIDSRLSPGGSLADAWAHQEGTHPKDRNVEKLQVLLNCMTEIYYQFKKDKAERRLAYNEEQIHKFDKQKLYYHATKAMTHFTDECVKKYEAFLNKSEEWIRKMLHLRKQLLSLTNQCFDIEEEVSKYQEYTNELQETLPQKMFTASSGIKHTMTPIYPSSNTLVEMTLGMKKLKEEMEGVVKELAENNHILERFGSLTMDGGLRNVDCL
binding (GFP-PP2A-Cα (human)): no binding

B3: mC-TANK 1-129 (domain or fragment, UniProt Q92844 1-129)
chain: MDKNIGEQLNKAYEAFRQACMDRDSAVKELQQKTENYEQRIREQQEQLSLQQTIIDKLKSQLLLVNSTQDNNYGCVPLLEDSETRKNNLTLDQPQDKVISGIAREKLPKVRRQEVSSPRKETSARSLGS
binding (GFP-TBK1 (human)): no binding

B4: mC-TANK (protein, UniProt Q92844 1-425)
chain: MDKNIGEQLNKAYEAFRQACMDRDSAVKELQQKTENYEQRIREQQEQLSLQQTIIDKLKSQLLLVNSTQDNNYGCVPLLEDSETRKNNLTLDQPQDKVISGIAREKLPKVRRQEVSSPRKETSARSLGSPLLHERGNIEKTFWDLKEEFHKICMLAKAQKDHLSKLNIPDTATETQCSVPIQCTDKTDKQEALFKPQAKDDINRGAPSITSVTPRGLCRDEEDTSFESLSKFNVKFPPMDNDSTFLHSTPERPGILSPATSEAVCQEKFNMEFRDNPGNFVKTEETLFEIQGIDPIASAIQNLKTTDKTKPSNLVNTCIRTTLDRAACLPPGDHNALYVNSFPLLDPSDAPFPSLDSPGKAIRGPQQPIWKPFPNQDSDSVVLSGTDSELHIPRVCEFCQAVFPPSITSRGDFLRHLNSHFNGET
binding (GFP-TBK1 1-668 (human)): no binding

The next lines start with the values.

binding (HA-TANK (human)): no binding
Molecule: FLAG-SINTBAD (from UniProt A7MCY6 1-615)

binding (GFP-TBK1 (human)): binds
B2: mC-TANK 129-425 (domain or fragment, UniProt Q92844 129-425)
chain: SPLLHERGNIEKTFWDLKEEFHKICMLAKAQKDHLSKLNIPDTATETQCSVPIQCTDKTDKQEALFKPQAKDDINRGAPSITSVTPRGLCRDEEDTSFESLSKFNVKFPPMDNDSTFLHSTPERPGILSPATSEAVCQEKFNMEFRDNPGNFVKTEETLFEIQGIDPIASAIQNLKTTDKTKPSNLVNTCIRTTLDRAACLPPGDHNALYVNSFPLLDPSDAPFPSLDSPGKAIRGPQQPIWKPFPNQDSDSVVLSGTDSELHIPRVCEFCQAVFPPSITSRGDFLRHLNSHFNGET
